Screen size: about 220,000 compounds; about 770 (0.35%) were called active. The inconclusive results got no clear call from the source; some entries with a clear call stand among them for comparison. Rule as the data show it: active = binding response below about 49% or above about 150%; inconclusive = no clear call, values can overlap the other calls; inactive = in between.
Molecular target: Guanine nucleotide-binding protein G(o) subunit alpha (Homo sapiens) (UniProt P09471)
Experiment: RGS7-Galphao binding modulators, primary screen, biochemical, multiplexed bead flow cytometry (AID 1439);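 also: fluorescent Galphao held in activated GDP-AlF4 state binding bead-coupled RGS7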
Settings: at 10 µM, actives lie on both sides

By UniProt entry, the sequences of proteins in these tests, tags left out.
UniProt P09471, whole entry, looked up: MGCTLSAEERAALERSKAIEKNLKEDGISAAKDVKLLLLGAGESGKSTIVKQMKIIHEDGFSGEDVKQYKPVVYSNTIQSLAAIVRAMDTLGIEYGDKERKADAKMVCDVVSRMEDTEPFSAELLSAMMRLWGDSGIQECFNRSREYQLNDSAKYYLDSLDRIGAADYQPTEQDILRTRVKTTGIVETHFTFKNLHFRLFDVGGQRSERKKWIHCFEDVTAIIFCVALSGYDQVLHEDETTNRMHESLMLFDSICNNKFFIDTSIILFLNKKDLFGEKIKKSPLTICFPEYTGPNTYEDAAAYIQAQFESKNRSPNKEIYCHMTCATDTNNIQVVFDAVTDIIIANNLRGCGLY

| SMILES | binding response (% of control) |
| --- | --- |
| Cc1cc(-c2csc(NC(=O)c3ccc(=O)[nH]c3)n2)c(C)n1Cc1ccco1 | inconclusive: 125% |
| Cc1ccc(-c2cc(N)n(-c3ccc(F)cc3)n2)cc1 | inconclusive: 82.2% |
| CCOC(=O)C1=C(C)NC(C)=C(C(=O)OCCNC(=O)c2cccnc2)C1c1cccc([N+](=O)[O-])c1 (centres undefined) | inactive: 111% |
| CC1(C)CC(N2CCN(Cc3ccccc3)CC2)=CC(=[N+]2CCCCC2)C1 | inconclusive: 96.3% |
| O=C(Nc1ccc(-c2cn3ccccc3n2)cc1)c1cccs1 | inconclusive: 105% |
| Cc1cc(C)n2nc(CCCO)nc2n1 | inconclusive: 104% |
| O=C(O)c1nccnc1C(=O)Nc1ccc(Oc2c(Cl)cccc2Cl)nc1 | inconclusive: 72.3% |
| COc1cc(OC)c(OC)cc1CN1CCN(Cc2cccn2C)CC1 | inactive: 98% |
| CCCCOc1ccc(CON(C(C)=O)C(C)=O)cc1Cl | inconclusive: 90.1% |
| C[C@@H]1CC=C[C@H]2[C@H]1C(=O)N(Cc1ccccc1)[C@H]2c1ccc(-c2cc3ccccc3s2)cc1F | inconclusive: 134% |
| CCC1CCCCN1C(=O)CSC1=NN2CCCC(=O)N=C2S1 (centres undefined) | inconclusive: 106% |
| COc1ccc(COCC(O)CN(Cc2ccccc2)C(C)C)cc1OC (centres undefined) | inconclusive: 73.5% |
| COc1ccccc1N1N=C(C(=O)c2ccccc2)C2C(=O)N(c3ccc(Br)cc3)C(=O)C21 (centres undefined) | inconclusive: 102% |
| O=C(COC(=O)C(O)C(O)C(=O)OCC(=O)c1ccc(C(F)(F)F)cc1)c1ccc(C(F)(F)F)cc1 (centres undefined) | inconclusive: -819% |
| NC(=O)c1ccsc1NC(=O)COC(=O)CCOc1ccccc1 | inconclusive: 115% |
| O=C(Cn1c(C(=O)NCc2ccco2)cc2sccc21)c1ccccc1 | inactive: 91% |
| COc1cccc(-n2c(=O)n(Cc3ccccc3)c(=O)c3[nH]cnc32)c1 | inconclusive: 132% |
| CCOC(=O)c1sc(S(C)=O)c2c1CCc1conc1-2 (centres undefined) | inconclusive: 97.7% |
| CC(=O)Nc1ccc(C(=S)NCCCO)cc1 | inconclusive: 91.1% |
| Cc1ccc(-c2[nH][nH]c(=O)c(=O)c2N=Nc2ccccc2)cc1 | inconclusive: 106% |
| CC(C)CC(NC(=O)C(COCc1ccccc1)NC(=O)OC(C)(C)C)C(=O)NN (centres undefined) | inactive: 108% |
| NNC(=O)[C@H](Cc1ccccc1)NC(=O)Nc1ccc2c(c1)OCCO2 | inconclusive: 210% |
| S=C1NC(c2ccccc2)=CC(c2ccccc2)N1 (centres undefined) | inconclusive: 84.7% |

4 consecutive entries out of the list so far:

| SMILES | binding response (% of control) |
| --- | --- |
| Cc1ccc(-c2[nH][nH]c(=O)c(=O)c2N=Nc2ccccc2)cc1 | inconclusive: 106% |
| CC(C)CC(NC(=O)C(COCc1ccccc1)NC(=O)OC(C)(C)C)C(=O)NN (centres undefined) | inactive: 108% |
| NNC(=O)[C@H](Cc1ccccc1)NC(=O)Nc1ccc2c(c1)OCCO2 | inconclusive: 210% |
| S=C1NC(c2ccccc2)=CC(c2ccccc2)N1 (centres undefined) | inconclusive: 84.7% |

(further entries)

| SMILES | binding response (% of control) |
| --- | --- |
| COC(=O)c1ccc(OC(=O)CCc2cc(OC)c(OC)c(OC)c2)cc1 | inactive: 106% |
| Cc1cccc(/C=C2\CS/C(=C\c3cccc(C)c3)C2=O)c1 | inactive: 90% |
| COc1cccc(NC(=S)N(CCCN2CCCC(C)C2)Cc2cccs2)c1 (centres undefined) | inconclusive: 95.2% |
| COc1ccc(CCNC(=O)CN2C(=O)NC(CCSC)C2=O)cc1 (centres undefined) | inconclusive: 95.8% |
| C=CCOc1ccc(/C=N/N2C(=O)C(CC(=O)Nc3ccc(F)cc3F)SC2=NC)cc1 (centres undefined) | inactive: 106% |
| Cc1ccc(NC(=S)N2CCSC2c2cccs2)cc1 (centres undefined) | inactive: 92.5% |
| CCOC(=O)c1ccc(N2C(=O)C(CC(N)=O)N(CCc3ccc(OC)c(OC)c3)C2=S)cc1 (centres undefined) | inconclusive: 100% |
| CCCOc1ccc(Oc2nc(-c3ccncc3)nc3ccccc23)cc1 | inconclusive: 282% |
| CCOP(=O)(c1ccccc1)C(O)c1ccc(Br)cc1 (centres undefined) | inactive: 97.8% |
| CCCC(CCC(=O)Nc1ccn(-c2ccccc2)n1)C(=O)O (centres undefined) | inconclusive: 100% |
| Cn1c(Cc2ccccc2)nnc1SCC(=O)Nc1ccc2c(c1)OCCO2 | inactive: 97.2% |
| CCN(CC)S(=O)(=O)c1ccc2nc(CCl)[nH]c2c1 | inactive: 102% |
| NS(=O)(=O)c1ccc(F)c(C(=O)O)c1 | inconclusive: 74.7% |
| CN(C)/C=C/C(=O)/C=C/c1ccc(Cl)cc1Cl | inconclusive: 94.7% |
| O=C(/C=C/c1ccc(S(=O)(=O)N2CCOCC2)cc1)OCC(=O)c1ccc([N+](=O)[O-])cc1 | inconclusive: 89.8% |
| Cc1ccnc2nc(C(=O)Nc3ccc(S(=O)(=O)N4CCCC4)cc3)nn12 | inconclusive: 26.6% |
| CCCc1c(C(=O)NNc2ccccc2OC)cnn1-c1ccccc1 | inconclusive: 54.4% |
| C(=C\c1ccccn1)/c1cccnc1 | inconclusive: 103% |
| O=C(CSc1nnc(-c2ccc(C(F)(F)F)cn2)s1)c1ccccc1 | inconclusive: 124% |
| Cc1nc2sc(C(N)=O)c(N)c2c2c1CCCC2 | inconclusive: 152% |
| O=C(COC(=O)c1cncc(Br)c1)NCc1ccc2c(c1)OCO2 | inconclusive: 104% |
| Cc1c(/C=N\NC(=O)c2c[nH]c3ccccc23)cnn1C | inconclusive: 116% |
| COc1cc(CN2CCN(c3cccc(C)c3C)CC2)cc(Br)c1O | inactive: 102% |

| SMILES | binding response (% of control) |
| --- | --- |
| CC1(C(=O)OCC(=O)Nc2ccccc2Cl)CC1(Cl)Cl (centres undefined) | inconclusive: 103% |
| Cc1cc(-c2nnc(SCC(=O)Nc3ccccc3)n2C)no1 | inconclusive: 31.4% |
| CC(=O)Nc1ccccc1C(=O)N1CCN(Cc2ccccc2)CC1 | inactive: 92.6% |
| Cc1cc(C(=O)NNc2ccccc2F)no1 | inconclusive: 102% |
| c1ccc(NCc2ccccn2)cc1 | inconclusive: 118% |
| COc1cc(-c2cc(C(=O)Nc3ccc(S(=O)(=O)Nc4ncccn4)cc3)c3ccccc3n2)cc(OC)c1OC | inconclusive: 638% |
| CC(C)n1cnnc1SCC(=O)Nc1ccc(Br)cc1F | inconclusive: 106% |
| O=C(CCC(=O)N(CC(=O)NC1CCCCC1)Cc1cccs1)Nc1nccs1 | inconclusive: 106% |
| Cc1c(-c2ccc(Cl)cc2)[n+](=O)c2c(n1[O-])CCCC2 | inconclusive: 76.3% |
| O=C(C1CCN(S(=O)(=O)c2cccnc2)CC1)N1CCN(c2cccc(Cl)c2)CC1 | active: 10.7% |
| c1ccc(-c2nnsc2-c2ncc[nH]2)cc1 | inconclusive: 172% |
| CCOC(=O)c1c(NC(=O)c2ccno2)c2cc([N+](=O)[O-])ccc2n1C | inconclusive: 138% |
| O=c1[nH]c(CSc2ncc(C(F)(F)F)cc2Cl)nc2cc(C(F)(F)F)ccc12 | inconclusive: 85.7% |
| CCN(CC)S(=O)(=O)c1cc(NS(=O)(=O)c2ccc(Cl)c(C(=O)O)c2)ccc1C | inconclusive: 130% |
| COC(=O)C(C)(C)ONC(=O)Nc1ccccc1[N+](=O)[O-] | inconclusive: 84.7% |
| O=C(Cn1nnc2ccccc21)c1ccc(Cl)cc1 | inconclusive: 34.5% |
| C=CCNC(=O)C1CC2Cn3c(nc4ccccc43)C2N1C (centres undefined) | inconclusive: 105% |
| COc1cc(C2Oc3ccccc3C=C2[N+](=O)[O-])cc(OC)c1OC (centres undefined) | inconclusive: 97.6% |
| Nc1ccc(-c2cc(N)n(-c3ccccc3)n2)cc1 | inactive: 102% |
| COc1ccc(C2NC(=S)NC3=C2N2CCC3CC2)cc1 (centres undefined) | inconclusive: 102% |
| O=C(Cn1cc(C(F)(F)F)cc(Cl)c1=O)Nc1ccc(N2CCOCC2)cc1 | inconclusive: 103% |
| CC(C)CNS(=O)(=O)c1cc(C(=O)OCC(=O)N(C)C2CCS(=O)(=O)C2)c(Cl)cc1Cl (centres undefined) | inconclusive: 76.3% |
| O=C(COC(=O)C1CCCCC1)NCCc1ccccc1 | inactive: 96.9% |

| SMILES | binding response (% of control) |
| --- | --- |
| COc1ccc(CC(=O)Nc2ccc(C(=O)NC(C)(C)C)cc2)cc1OC | inconclusive: 89.4% |
| CCOC(=O)CSc1nc(=O)n2cccc(C)c2n1 | inconclusive: 131% |
| COc1ccc(Nc2ncnc3sc(-c4ccccc4)cc23)c(OC)c1 | inconclusive: 89.3% |
| CC1=Nc2ccccc2/C1=C/c1sc(=S)n(-c2cccc(C(=O)O)c2)c1O | inconclusive: 116% |
| CC1(C)CC2(C)OC(=N)C1(C#N)C2(C#N)C#N (centres undefined) | inconclusive: 43% |
| O=C1NC(=O)/C(=C/c2ccc(N3CCOCC3)o2)N1 | inconclusive: 211% |
| Cc1cc(NC(=O)Nc2cc(C)nn2-c2ccccc2)n(-c2ccccc2)n1 | inactive: 101% |
| CCCNC(=S)Nc1ccc2nc(-c3ccccn3)c(-c3ccccn3)nc2c1 | inactive: 98.9% |
| O=C(Nc1nc2cc3c(cc2s1)OCCO3)c1ccc(N2C(=O)CCC2=O)cc1 | inconclusive: 73% |
| CCC(=O)Nc1cccc(C2=NOC3(C2)C[C@@H](C(N)=O)N(C(=O)C(c2ccccc2)c2ccccc2)C3)c1 (some centres undefined) | inconclusive: 126% |
| CC(C)CCN1CCN(Cc2cccc(C(F)(F)F)c2)CC1CCO (centres undefined) | inactive: 84.7% |
| O=C(CSc1nnc(-c2ccc(C(F)(F)F)cn2)s1)c1ccc(Cl)cc1 | inconclusive: 135% |
| Cc1cccn2c(=O)c3cc(S(=O)(=O)c4ccc(F)cc4)c(=N)n(Cc4ccco4)c3nc12 | inconclusive: 114% |
| O=C(NCc1ccc(Cl)cc1)c1cc(=O)[nH]c2ccc(S(=O)(=O)N3CCOCC3)cc12 | inconclusive: 97.3% |
| COC(=O)CCC(=O)NNC(=O)CCC(=O)Nc1cccc(Cl)c1C | inconclusive: 96.8% |
| CCn1c(Cc2ccccc2)nnc1SCC(=O)Nc1ccc(C)cc1 | inactive: 100% |
| COc1ccc(C2=NN(CC(=O)Nc3ccccc3C)C(=O)CC2)cc1 | inconclusive: 84.9% |
| CC(C)(C)OC(=O)NCc1ccc(NC(=O)c2nc[nH]c2C(=O)N[C@@H](Cc2ccccc2)C(=O)OC(C)(C)C)cc1 | inconclusive: 116% |
| CCN(CC)S(=O)(=O)c1ccc(NC(=O)COC(=O)c2cnc(C)cn2)cc1 | inconclusive: 85.8% |
| C=CCN(CC(=O)NC1CCS(=O)(=O)C1)S(=O)(=O)c1ccccc1C(F)(F)F (centres undefined) | inconclusive: 87.2% |

From PubChem BioAssay AID1439 (NMMLSC, 2008)
